The record followed here is the supplement of paper PMC4635364.

Each structure is given as a SMILES string. Counter-ions that a name gives are not always drawn. This is one part of the list. This data set is noisy: repeats of one test often differ as much as different tests do.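 Cells: ReNCell VM human fetal ventral-midbrain neural progenitors, differentiated mitogen-free. Blinded raters compared doublecortin-stained (early neurons) or tyrosine hydroxylase-stained (dopaminergic neurons) images with untreated wells, where 0 means no change. After repeats and both raters were averaged, compounds scoring 2 or above became hits for retesting.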

The subject of one assay is ReNCell VM. In words: neuronal differentiation score (DCX+ cell fraction vs untreated, manual image score) (score (-3 to 3)); higher = more neuronal differentiation. The conditions noted are these: library: Spectrum; 2 uM; 2 weeks.
`CNC(C)[C@H](O)c1ccccc1` (stereo not given in full): the neuronal differentiation score is inactive: 0.
`CNC(=O)Oc1ccc2c(c1)[C@]1(C)CCN(C)[C@@H]1N2C`: the neuronal differentiation score was inactive: 0.
The same measure, in the same setting: in the case of `C[C@@H]1NCCc2cc(O)c(O)cc21` it was inactive: 0; in that of `CC(O)CN1CCN(CC(=O)[O-])CCN(CC(=O)[O-])CCN(CC(=O)[O-])CC1.[Gd+3]` (stereo not given), inactive: 0; in that of `O=C(O)CCC1NCC2CC1CN1CCCCC21` (stereo not given), inactive: 0.
On the same count and under the same terms, in the case of `CN1CCc2cc3c(cc2[C@H]1[C@@H]1OC(=O)c2c1ccc1c2OCO1)OCO3` it was inactive: 0; in that of `O=C1C=CC(=O)c2c(O)cccc21`, inactive: 0; in that of `C[C@@]12C(=O)OC(=O)[C@]1(C)[C@H]1CC[C@@H]2O1`, inactive: 0.
Turning to `COc1cc2ccc(=O)oc2c2ccoc12`, the neuronal differentiation score is inactive: 0.
Still for that read-out and setting: to `CN(C)C(=O)Oc1cccc([N+](C)(C)C)c1` belongs inactive: 0.
`C=CC[C@]1(O)CC[C@H]2[C@@H]3CCC4=CC(=O)CCC4=C3C=C[C@@]21C`: the neuronal differentiation score was inactive: 0.
Turning to `Nc1ccncc1`, the neuronal differentiation score was inactive: 0.
As for `CCC1(CC)C(=O)NC(=O)NC1=O`, the neuronal differentiation score was inactive: 0.
The same measure, in the same setting: to `CC(N)Cc1ccc(O)cc1` (stereo not given) belongs inactive: 0.

The assay is the same for the next values; noted with them: library: Tocriscreen; 2 uM; 2 weeks.
On to `O=C1NC(=O)c2c1c1c3ccccc3[nH]c1c1[nH]c3ccccc3c21` [Arcyriaflavin A], for which the neuronal differentiation score was inactive: 0.
On the same count and under the same terms, in the case of `c1cc(Cc2cnc[nH]2)ccn1` [Immethridine dihydrobromide] it was inactive: 0.
Same read-out and setting: in the case of `FC(F)(F)c1cccc(C2=CCN(CCc3ccc4ccccc4c3)CC2)c1` [Xaliproden hydrochloride] it was inactive: 0.
The same measure, in the same setting: to `O=C(CCCN1CCC2(CC1)C(=O)N(Cc1cccc(F)c1)CN2c1ccccc1)c1ccc(F)cc1` [3'-Fluorobenzylspiperone maleate] belongs inactive: 0.
Take `CN1Cc2ccccc2[C@@H]2c3cccc4[nH]cc(c34)C[C@H]21`: the neuronal differentiation score was inactive: 0.
As for `CN1C2CCC1CC(OC(c1ccccc1)c1ccc(Cl)cc1)C2` (stereo not given), the neuronal differentiation score was inactive: 0.
On the same count and under the same terms, to `C#CCOC(=O)C1=CCCN(C)C1` [Arecaidine propargyl ester tosylate] belongs inactive: 0; to `C[N+]1(C)CCc2cc3c(cc2C1C1OC(=O)c2c1ccc1c2OCO1)OCO3` (single isomer, unassigned; (-)) [(-)-Bicuculline methobromide], inactive: 0.

Another assay concerns ReNCell VM. The assay can be described thus: dopaminergic neuron differentiation score (TH+ cell fraction vs untreated, manual image score) (score (0 to 3)); higher = more TH+ dopaminergic neuron differentiation. The conditions noted are these: library: LOPAC; 2 uM; 4 weeks; BDNF 10 ng/ml + GDNF 10 ng/ml.
`O=[N+]([O-])c1ccc(O[C@@H]2O[C@H](CO)[C@@H](O)[C@H](O)[C@H]2F)c([N+](=O)[O-])c1` [2,4-Dinitrophenyl 2-fluoro-2-deoxy-beta-D-glucopyranoside]: the “dopaminergic neuron differentiation score” value was inactive: 0.
Still for that read-out and setting: in the case of `C[N+]1(C)C2CCC1CC(OC(=O)c1c[nH]c3ccccc13)C2` (stereo not given) [3-Tropanylindole-3-carboxylate methiodide] it was inactive: 0.
Turning to `CCCN1CCC[C@@H](c2cccc(C#N)c2)C1` [S(-)-DS 121 hydrochloride], the “dopaminergic neuron differentiation score” value is inactive: 0.
For the molecule `CCN(CC)C(=O)NC1CC2c3cccc4[nH]cc(c34)CC2N(C)C1` (stereo not drawn) [R(+)-Terguride], the “dopaminergic neuron differentiation score” value was active: 3.
As for `N[C@@H](Cn1oc(=O)[nH]c1=O)C(=O)O` [(+)-Quisqualic acid], the “dopaminergic neuron differentiation score” value was inactive: 0.

The assay is the same for the next values; noted with them: library: Natural; 2 uM; 4 weeks; BDNF 10 ng/ml + GDNF 10 ng/ml.
As for `C1CC[C@H]([C@]23C[C@@H](C[C@@H]4CCCN[C@H]42)[C@H]2CCCCN2C3)NC1` [ormosanine], the “dopaminergic neuron differentiation score” value is inactive: 0.
Take `CCN1C[C@]2(C)CC[C@H](OC)C34C5C[C@@H]6CC[C@@](O)(C5C(=O)O6)C(C13)[C@@H](OC(=O)c1ccccc1)[C@@H]42` [6-benzoylheteratisine]: the “dopaminergic neuron differentiation score” value was inactive: 0.
Still for that read-out and setting: in the case of `O=C(O)C1Cc2[nH]cnc2C(c2cccnc2)N1` (stereo not given) it was inactive: 0.

Staying with this assay, now noted: library: Prestwick; 2 uM; 4 weeks; BDNF 10 ng/ml + GDNF 10 ng/ml.
`Cc1cc(C(C#N)c2ccc(Cl)cc2)c(Cl)cc1NC(=O)c1cc(I)cc(I)c1O` (stereo not given) [Closantel]: the “dopaminergic neuron differentiation score” value was inactive: 0.
As for `CCN[C@@H](C)Cc1cccc(C(F)(F)F)c1` [Dexfenfluramine hydrochloride], the “dopaminergic neuron differentiation score” value was inactive: 0.
Consider `COP(=O)(OC)C(O)C(Cl)(Cl)Cl` (stereo not given) [Trichlorfon], for which the “dopaminergic neuron differentiation score” value is inactive: 0.
`Cc1cccc(C)c1NC1=NCCCS1` [Xylazine]: the “dopaminergic neuron differentiation score” value was inactive: 0.
Still for that read-out and setting: in the case of `COc1ccc(CN2CCNCC2)c(OC)c1OC` [Trimetazidine dihydrochloride] it was inactive: 0; in that of `C[CH2][Hg][S]c1ccccc1C(=O)[O-].[Na+]` [Thimerosal], inactive: 0.

Staying with this assay, now noted: library: Spectrum; 2 uM; 4 weeks; BDNF 10 ng/ml + GDNF 10 ng/ml.
`CNC(C)[C@H](O)c1ccccc1` (stereo not given in full): the “dopaminergic neuron differentiation score” value is inactive: 0.
The same measure, in the same setting: to `CNC(=O)Oc1ccc2c(c1)[C@]1(C)CCN(C)[C@@H]1N2C` belongs inactive: 0; to `C[C@@H]1NCCc2cc(O)c(O)cc21`, inactive: 0; to `CC(O)CN1CCN(CC(=O)[O-])CCN(CC(=O)[O-])CCN(CC(=O)[O-])CC1.[Gd+3]` (stereo not given), inactive: 0.
The same measure, in the same setting: to `O=C(O)CCC1NCC2CC1CN1CCCCC21` (stereo not given) belongs inactive: 0.
Same read-out and setting: in the case of `CN1CCc2cc3c(cc2[C@H]1[C@@H]1OC(=O)c2c1ccc1c2OCO1)OCO3` it was inactive: 0; in that of `O=C1C=CC(=O)c2c(O)cccc21`, inactive: 0.
As to `C[C@@]12C(=O)OC(=O)[C@]1(C)[C@H]1CC[C@@H]2O1`, the “dopaminergic neuron differentiation score” value is inactive: 0.
The same measure, in the same setting: in the case of `COc1cc2ccc(=O)oc2c2ccoc12` it was inactive: 0.
On the same count and under the same terms, to `CN(C)C(=O)Oc1cccc([N+](C)(C)C)c1` belongs inactive: 1; to `C=CC[C@]1(O)CC[C@H]2[C@@H]3CCC4=CC(=O)CCC4=C3C=C[C@@]21C`, inactive: 0; to `Nc1ccncc1`, inactive: 0.
For `CCC1(CC)C(=O)NC(=O)NC1=O`, the “dopaminergic neuron differentiation score” value is inactive: 0.
On the same count and under the same terms, in the case of `CC(N)Cc1ccc(O)cc1` (stereo not given) it was inactive: 0.
